Assay: Bulk and flow properties of powders (FT4 Powder Rheometer)
Format: physicochemical
Details: API/excipient powder

CN1C(=O)CN=C(c2ccccc2)c2cc(Cl)ccc21 [Diazepam (DIZ), Diazepam]
Bulk density: 0.52 g/mL

— patent publication US11020352B2, “Systems and methods for the fabrication of tablets, including pharmaceutical tablets” (Massachusetts Institute of Technology, priority 2017, dated 2021)
